Measured values published in patent US20140341983A1, “SMART™ SOLID ORAL DOSAGE FORMS” (priority 2011, published 2014).

Test: Pilot SAW sensor detection of flavorants in breath after placement on tongue or in mouth
Details: 30 and 500 μg in 50 μL neat ethanol placed on surface of tongue; polymer coatings optimized for propofol
With `C=C(C)[C@@H]1CC=C(C)C(=O)C1` [L-carvone] the “detection in human breath by SAW sensor” value was “easily detected”. For `COc1cc(C=O)ccc1O` [vanillin, 4-hydroxy-3-methoxybenzaldehyde], the “detection in human breath by SAW sensor” value was “weak SAW response”. In the case of `O=Cc1ccccc1` [benzaldehyde], the “detection in human breath by SAW sensor” value is reported as “easily detected”. For `COC(=O)c1ccccc1N` [methyl anthranilate], the “detection in human breath by SAW sensor” value was “easily detected”. With `COC(=O)c1ccccc1O` [methyl salicylate, methyl-2-hydroxybenzoate] the “detection in human breath by SAW sensor” value was “easily detected”.
